This note sets out measurements from PubChem BioAssay AID2685 (National Center for Advancing Translational Sciences (NCATS), 2010).

This test can be described thus: qHTS Assay for Lipid Storage Modulators in Drosophila S3 Cells.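 For cell number change: cells counted by Cell Tracker Red CMTPX staining in the red channel.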 As to conditions: BODIPY lipid droplet fluorescence, 18-24 h; for cell number change: measured here: cell count max response, cells fed with added oleic acid. An outline of the steps: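 Drosophila S3 cells loaded with oleic acid (400 uM, as added) and compounds at several concentrations; lipid droplets imaged by 488-nm laser-scanning cytometry, 500–530 nm intensity and object ratio to cell channel. Percent activity normalized to 20 uM Triacsin C.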
On the technique in general: In qHTS, concentration-response curves come from the screen itself.

[1] abbreviates: measured here: cell number channel AC50, cells fed with added oleic acid.
Setting [2] is: measured here: lipid fluorescence (Fed channel) AC50, cells fed with added oleic acid.

The list shows a part of the results. Shown are side measurements of this screen, not its main read-out; they come without a call. The list favours compounds with an active or inconclusive main result. Potencies come from curve fits of mixed quality, noted in brackets.

Regarding `FC(F)(F)c1cccc(OCCN2CCN(Cc3ccccc3)CC2)c1`, the cell number change was -53.7%. Under setting [1], the half-maximal activity concentration (AC50) is 14.6 µM [falling, partial curve]. The concentration at half-maximal activity (AC50) under setting [2] was 13 µM [falling, partial curve].
With `COc1ccc(C(=O)N2CC=C(c3ccccc3)CC2)cc1S(=O)(=O)N1CCOCC1`, under setting [2], the AC50 was 25.9 µM [rising, single point].
As to `CC(c1ccco1)N(C(=O)c1cccc(Br)c1)c1ccccn1` (stereo not drawn), the cell number change worked out at 14.3%.
As for `O=C1OC(Nc2ncccn2)c2ccccc21` (stereo not drawn), the cell number change was -46.2%. Further, under setting [1], the half-maximal activity concentration (AC50) was 29.1 µM [falling, single point]. In addition, under setting [2], the AC50 is 0.517 µM [falling, full curve].
As for `N#CC(C(=O)NC1CCCCC1)=C1CCCCCC1`, the cell number change is -10.5%. Further, the half-maximal activity concentration (AC50) under setting [1] is 0.82 µM [falling, full curve, poor fit]. Besides, under setting [2], the half-maximal activity concentration (AC50) is 0.82 µM [falling, partial curve, poor fit].
Take `O=C(Nc1ccc(-c2nnc(-c3ccccc3)o2)cc1)C(F)(F)F`: the cell number change is -24.7%. Moreover, the AC50 under setting [2] was 0.259 µM [falling, partial curve, poor fit].
Take `COc1ccccc1-c1noc(CCC(=O)Nc2cccc(C(F)(F)F)c2)n1`: the cell number change was 2.8%. In addition, under setting [2], the half-maximal activity concentration (AC50) is 1.03 µM [rising, partial curve].
In the case of `Cc1ccc2nc(C(F)(F)F)c(C#N)c(N)c2c1`, the cell number change was -21.9%. The AC50 under setting [2] is 1.46 µM [rising, partial curve, poor fit].
As for `COc1ccc2c(c1O)Cc1ccccc1C2=O`, the cell number change was -13.8%. Under setting [2], the AC50 is 6.51 µM [falling, single point].
Take `CCc1ccc(NC(=O)C(=O)NCCN2CCN(S(=O)(=O)c3ccccc3)CC2)cc1`: the cell number change was -6.41%.
Take `COc1ccc(OCC(O)CNCc2ccco2)cc1` (stereo not drawn): the cell number change is -2.02%. Also, under setting [2], the AC50 was 0.00517 µM [falling, full curve, poor fit].
Consider `CCOC(=O)CSC1=C(C#N)C(c2ccc(OC)cc2)C2=C(CC(C)(C)CC2=O)N1` (stereo not drawn), for which the cell number change is -26.2%.
`CCOC(=O)c1c(CS(=O)(=O)c2ccccc2)n(C)c2cc(Br)c(O)c(CN(C)C)c12`: the cell number change is -9.79%. Moreover, under setting [2], the half-maximal activity concentration (AC50) is 1.84 µM [falling, full curve, poor fit].
Turning to `COc1ccc(CC(=O)Nc2ccc(-c3noc(-c4cc(OC)c(OC)c(OC)c4)n3)cc2)cc1`, the cell number change was -67.9%. Under setting [1], the half-maximal activity concentration (AC50) is 2.91 µM [falling, full curve]. Also, the AC50 under setting [2] is 4.11 µM [falling, full curve].
On to `COc1ccc(OC)c(N=C(N)N=C(N)N)c1`, for which the cell number change was found to be 1.23%. Besides, the AC50 under setting [1] is 0.092 µM [falling, full curve, poor fit]. Moreover, under setting [2], the AC50 was 18.4 µM [falling, partial curve].
For the molecule `COCCNC(=O)[C@H](C)[C@H]1C[C@]1(C)[C@H](NC(=O)OCc1ccccc1)c1ccccc1`, the cell number change is -1.14%. Besides, the concentration at half-maximal activity (AC50) under setting [2] was 20.6 µM [rising, single point].
On to `CN(C)S(=O)(=O)c1ccc(Cl)c(NC(=O)COC(=O)C2CSC3(C)CCC(=O)N23)c1` (stereo not drawn), for which the cell number change was -18.5%. Under setting [1], the AC50 was 6.51 µM [rising, partial curve, poor fit].
Take `COc1ccc(CN2C(=O)c3ccccc3C2=O)cc1`: the cell number change was 13.2%. The AC50 under setting [2] was 29.1 µM [rising, single point].
In the case of `CCOC(=O)c1c(C)[nH]c(C(=O)COC(=O)c2ccc(N3CCCC3=O)cc2)c1C`, the cell number change amounted to 7.79%. For the same molecule, the AC50 under setting [2] is 0.82 µM [rising, full curve, poor fit].
Regarding `Cc1cccc(C(=O)NNC(=O)CCn2nnc3ccccc32)c1`, the cell number change was found to be 0.213%. Moreover, the concentration at half-maximal activity (AC50) under setting [2] was 5.8 µM [falling, single point].
For the molecule `COc1ccc(C(=O)NC(=S)NCCc2ccccc2)cc1`, the concentration at half-maximal activity (AC50) reads like this: under setting [1], 6.51 µM [falling, single point]; under setting [2], 6.51 µM [falling, single point].
Take `Cn1c(NC(=S)Nc2ccccc2)nc2ccccc21`: the cell number change was -18.9%. The AC50 under setting [2] was 2.31 µM [falling, full curve].
`Cc1cc(=O)oc2c3c(cc(OCC(=O)NCc4ccncc4)c12)OC(C)(C)CC3`: the cell number change was found to be 24.6%. In addition, the half-maximal activity concentration (AC50) under setting [1] was 0.92 µM [rising, full curve, poor fit]. For the same molecule, the AC50 under setting [2] was 29.1 µM [rising, single point].
Regarding `CCC1=NN2C(=N)/C(=C/c3ccc(OS(=O)(=O)c4ccccc4)cc3)C(=O)N=C2S1`, the cell number change is -3.44%. Also, the AC50 under setting [2] is 29.1 µM [rising, single point].
For the molecule `CC(C)c1ccc(NC(=O)[C@H](Cc2c[nH]c3ccccc23)NC(=O)[C@@H]2Cc3ccccc3CN2)cc1`, the cell number change was -11.9%. The concentration at half-maximal activity (AC50) under setting [2] is 0.103 µM [falling, full curve, poor fit].
In the case of `Cn1cccc1/C=C1\SC(=S)N(NC(=O)c2cccc(Cl)c2)C1=O`, the cell number change stood at 34.3%. Also, the AC50 under setting [1] is 8.2 µM [rising, partial curve]. Further, the AC50 under setting [2] is 6.51 µM [rising, partial curve, poor fit].
As to `Cc1cccc(Nc2nc(-c3ccc(O)c(O)c3)cs2)n1`, the cell number change was -64.6%. Further, the AC50 under setting [1] was 23.1 µM [falling, single point]. The AC50 under setting [2] was 29.1 µM [falling, single point].
As to `COc1cc2nc(CN3CCN(S(=O)(=O)c4ccccc4)CC3)[nH]c(=O)c2cc1OC`, the cell number change is -1.49%.
For `COc1ccc(NC(=O)C2CC(=O)N(c3ccccc3Cl)C2)c(OC)c1` (stereo not drawn), the cell number change is 6.84%.
For `Cc1ccc(CSc2nc3ccncc3n2CC(=O)Nc2cc(C)cc(C)c2)cc1`, the cell number change was -40.5%. For the same molecule, the AC50 under setting [1] was 16.4 µM [falling, single point]. In addition, under setting [2], the concentration at half-maximal activity (AC50) is 1.84 µM [rising, partial curve].
Consider `COc1ccc(-c2c(C#N)c(SCC(N)=O)nc3c2CCCC3)cc1`, for which the cell number change was 22.6%. In addition, the concentration at half-maximal activity (AC50) under setting [1] is 7.31 µM [rising, partial curve, poor fit]. Besides, under setting [2], the AC50 was 3.66 µM [rising, full curve, poor fit].
With `CCOc1ccc(OCc2ccc(C(=O)N3N=C(C(F)F)CC3(O)C(F)F)o2)cc1` (stereo not drawn), the cell number change is -50.4%. Moreover, under setting [2], the AC50 was 0.13 µM [falling, full curve, poor fit].
With `CCOC(=O)N1CCC(NC(=O)CN2C(=O)CSc3nc(C)cc(C)c32)CC1`, the cell number change is 15.5%. Further, the half-maximal activity concentration (AC50) under setting [2] was 0.82 µM [rising, full curve, poor fit].
Take `Cc1ccc(S(=O)(=O)CCC(=O)OCC(=O)c2c(N)n(CC(C)C)c(=O)n(C)c2=O)cc1`: the cell number change was -13.5%.
Regarding `CCOc1cc(N2CCOCC2)c(OCC)cc1NC(=O)CSc1ncn[nH]1`, the cell number change was 25.6%. For the same molecule, under setting [2], the AC50 was 23.1 µM [rising, single point].

As usually defined, the AC50 is the concentration giving half of the maximal activity seen. Read a high AC50 as weaker potency.
